Reference: patent publication US20210267979A1, “THERAPEUTIC AGENT FOR TREATING DIFFUSE GASTRIC CANCER” (KANAZAWA MEDICAL UNIVERSITY, priority 2018, published 2021)
For at least one compound, name, drawing or mass did not settle the structure.

Columns and labels:
NUGC4 = test: Cell proliferation of diffuse gastric cancer cell strain NUGC4 (Cell Counting Kit-8); format: cell-based; conditions: for Inhibitory effect on HGF induced, amphiregulin induced and base line cell proliferation: single agent, 0.001 to 10 micro M
Procedure: (§1) Each diffuse gastric cancer cell strain of NUGC4 (obtained from Health Science Research Resources Bank (Osaka, Japan)) and GCIY (obtained from Riken BioResource Research Center (Tsukuba, Japan)) was cultured and passaged in an RPMI1640 culture medium containing 10% fetal calf serum, 100 units/mL penicillin, and […] streptomycin antibiotic, and was used for the following experiments. Mycoplasma infection of cultured cells was regularly checked by MycoAlert Mycoplasma Detection kit (Lonza).
(§2) Cell proliferation was measured by Cell Counting Kit-8 (CCK-8) (Dojindo Laboratories, Kumamoto, Japan) (M. Ishiyama, et al., Talenta 44; 1299: 1997). Cells were seeded at 100 micro L/well at a concentration of 5×10^4 cells/mL and were cultured in an incubator at 37° C. for 24 hours. To each well, HGF (R&D systems) (50 ng/mL) or amphiregulin (R&D Systems (Minneapolis, Minn.)) (100 ng/mL) and trametinib (Selleck Chemicals (Houston, Tex.)) (0.001 to 10 micro M) were then added, and the cells were further cultured in an incubator at 37° C. for 72 hours. To each well, 10 micro L of a WST-solution was added, which was incubated at 37° C. for 4 hours. Absorbance was measured at a wavelength of 450 nm by a microplate reader (BIO-RAD Laboratories, Inc.). A similar experiment was repeated three times in triplets.

GCIY = test: Cell proliferation of diffuse gastric cancer cell strain GCIY (Cell Counting Kit-8); format: cell-based
Procedure: as §1, §2

MKN7 = test: Cell proliferation of non-diffuse gastric cancer cells MKN7 (Cell Counting Kit-8); format: cell-based, Human
Procedure: as §2
(§3) Effects of trametinib on proliferation of non-diffuse gastric cancer cell were examined by the similar method to that in Example 1.
(§4) Human non-diffuse, well-differentiated gastric cancer cells used were MKN7 (Health Science Research Resources Bank (Osaka, Japan)) and GCR1 (Cancer Research Institute, Kanazawa University).

GCR1 = test: Cell proliferation of non-diffuse gastric cancer cells GCR1 (Cell Counting Kit-8); format: cell-based, Human
Procedure: as §2, §3, §4

MKN45 = test: Cell proliferation of cMet gene-amplified gastric cancer cell strain MKN45 (Cell Counting Kit-8); format: cell-based; conditions: single agent
Procedure: as §2
Effects of trametinib on proliferation of cMet gene-amplified gastric cancer cell were examined by the similar method to that in Example 1.
As the cMet gene-amplified gastric cancer cells, cMet gene-amplified gastric cancer cell strain MKN45 (Health Science Research Resources Bank (Osaka, Japan)) was used.

Row | Compound | Inhibitory effect on HGF induced, amphiregulin induced and base line cell proliferation (NUGC4) | Proliferation inhibitory effect of combined use of trametinib and everolimus (NUGC4; everolimus 1 micro M) | Proliferation inhibitory effect of combined use of pimasertib and rapamycin (NUGC4; rapamycin 1 micro M) | Proliferation inhibitory effect of combined use of trametinib and everolimus (GCIY; everolimus 1 micro M) | Inhibitory effect on HGF induced, amphiregulin induced and base line cell proliferation (GCIY; single agent, 0.001 to 10 micro M) | Proliferation inhibitory effect of combined use of trametinib and everolimus (MKN7; everolimus 1 micro M) | Inhibitory effect on HGF induced, amphiregulin induced and base line cell proliferation (MKN7; single agent) | Proliferation inhibitory effect of combined use of trametinib and everolimus (GCR1; everolimus 1 micro M) | Inhibitory effect on HGF induced, amphiregulin induced and base line cell proliferation (GCR1; single agent) | Inhibitory effect on HGF induced, amphiregulin induced and base line cell proliferation (MKN45)
1 | Oc1c2ccccc2c2c3c(cccc13)N=N2 [SP600125] | did not exhibit obvious inhibitory effects | – | – | – | – | – | – | – | – | –
2 | CC(=O)Nc1cccc(-n2c(=O)n(C3CC3)c(=O)c3c(Nc4ccc(I)cc4F)n(C)c(=O)c(C)c32)c1 [Trametinib, trametinib] | strongly suppressed | synergistically improved by addition of everolimus | synergistically improved by addition of everolimus | synergistically improved by addition of everolimus | suppressed | no combined effect was exhibited | the effects were weaker than on the diffuse gastric cancer cells | no combined effect was exhibited | the effects were weaker than on the diffuse gastric cancer cells | marked cell proliferation inhibition from a very low concentration below 0.001 micro M
